From patent US20260104399A1, “A PROCESS FOR ASSESSING BIODEGRADABILITY OF COMPLEX ORGANIC MIXTURES” (ABOCA S.P.A. SOCIETÀ AGRICOLA, priority 2022, published 2026)

Key:
[1] = tested on: microfauna of the inoculum (activated sludge and river water); test: Targeted UHPLC-qToF qualitative analysis of RBT samples of mixtures A and B; design: species or system Aspidisca cicada, Zoothamnium, Rotiferi, Euglyphia
[2] = tested on: microfauna of the inoculum (activated sludge and river water); test: Semiquantitative UHPLC-qToF evaluation (Relative Ratio, percentage of reduction) of residual main components after RBT; design: species or system Aspidisca cicada, Zoothamnium, Rotiferi, Euglyphia; conditions: for reduction percentage: T28 vs T0; for RR at T28 (Relative Ratio): after 28 days RBT
[3] = component in Mixture A at 50 mg/L
[4] = component in Mixture A at 100 mg/L
[5] = component in Mixture A at 1000 mg/L

| Compound | presence after 28 days (target analysis, m/z 419.0038) ([1]; Mixture A, after 28 days RBT) | degradation of the component (in words) ([2]; Mixture A, all the samples (50, 100, 1000 mg/L), 28 days) | reduction percentage [2, 3] | RR at T28 (Relative Ratio) [2, 3] | RR at T0 (Relative Ratio, area counts of compound / internal standard) ([2]; component in Mixture A at 50 mg/L, start of RBT) | reduction percentage [2, 4] [% reduction] | RR at T28 (Relative Ratio) [2, 4] | RR at T0 (Relative Ratio) ([2]; component in Mixture A at 100 mg/L, start of RBT) | reduction percentage [2, 5] | RR at T28 (Relative Ratio) [2, 5] | RR at T0 (Relative Ratio) ([2]; component in Mixture A at 1000 mg/L, start of RBT) | presence of compound or direct derivatives after 28 days of RBT ([1]; Mixture B, target study) |
| --- | --- | --- | --- | --- | --- | --- | --- | --- | --- | --- | --- | --- |
| OC[C@H]1O[C@H](O[C@]2(CCl)O[C@H](CCl)[C@@H](O)[C@@H]2O)[C@H](O)[C@@H](O)[C@H]1Cl [Sucralose (1), sucralose] | detected without any significant difference in concentration | fully non-degradable | No % reduction | RR at T28 0.052 | RR at T0 0.049 | 0.56 | RR at T28 0.09 | RR at T0 0.100 | No % reduction | RR at T28 0.483 | RR at T0 0.468 |  |
| Sucrose [Sucrose (4)] |  |  |  |  |  |  |  |  |  |  |  | not possible to detect |
